{
  "source": "PubChem BioAssay AID624134",
  "about": "(Broad Institute, 2012)",
  "note": "Hit rate of the full screen: of about 1,600 compounds, about 1,100 (69%) were called active. So high a share suggests a set chosen from earlier hits. Inconclusive means that the source gave no clear call. Such entries were picked first, then a sample of the others.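 The calls were made as follows: active = signal drop with fitted half-maximal concentration no higher than twice the top valid tested concentration; inconclusive = flat curve with 30 to 70% signal loss, or poor fit; inactive = the rest, including signal rises and flat curves within 30%.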 Starred links: 1 amine or outer side, 2 acyl side, 3 side chain; linkers in the order of their positions; H or OH if unused. Positions of bridges follow the written chain, without caps; N, C: chain ends. Non-standard residues stand in square brackets, D forms with d. Residues, ends and D or L forms follow the SMILES beside them. ξ: configuration not given here. X1 = CC[C@H](CCC[C@@H](O)[C@@H](C)C(=O)O[C@H](C)[C@@H](C)C/C=C(C)/C(=C\\C(=O)[*:1])OC)O[*:2]; NMeξIle = CC[C@H](C)C(NC)C(=O)O; NMeV = CN[C@H](C(=O)O)C(C)C; NMeS = CN[C@@H](CO)C(=O)O",
  "data": [
    {"test": "loss of viability in HepG2 cells – cell-based, CellTiter-Glo, cherry-picked, cytotoxicity control for Shn3 inhibitor project, dose response (AID 624134);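 also: 0% = median of neutral control wells and -100% = median of positive control wells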", "conditions": "CellTiter-Glo ATP luminescence, 48 h; at 35 µM (top of the series)", "values": [
      {"smiles": "O=C(O)C1(Nc2ccccc2Cl)CCCC1", "activity change, negative = cytotoxicity": "inactive: -3.18%"},
      {"smiles": "O=C1N(c2ccccc2)C[C@@H]2C[C@@H](c3cc4ccccc4o3)N3CCC[C@@]123", "activity change, negative = cytotoxicity": "inconclusive: -34.8%"},
      {"smiles": "Cc1ccc(S(=O)(=O)NCCc2cc3ccc(C)cc3[nH]c2=O)cc1", "activity change, negative = cytotoxicity": "inactive: -9.09%"},
      {"smiles": "Cc1ccn2cc(-c3ccc(O)c(O)c3)nc2c1", "activity change, negative = cytotoxicity": "inactive: 0.075%"},
      {"smiles": "NC(=Nc1nc(-c2ccccn2)cc2ccccc12)c1ccccn1", "activity change, negative = cytotoxicity": "inconclusive: -49.8%"},
      {"smiles": "COc1ccc(C(O)c2nc(-c3cccc(F)c3)cs2)cc1", "note": "(stereo unspecified)", "activity change, negative = cytotoxicity": "inactive: -10.4%"},
      {"smiles": "COc1ccc(CCNc2ncnc3sccc23)cc1OC", "activity change, negative = cytotoxicity": "inconclusive: -47%"},
      {"smiles": "CCCCNc1cccc2c1S(=O)(=O)N(CCCC)CC(COCc1ccccc1)O2", "note": "(stereo unspecified)", "activity change, negative = cytotoxicity": "inactive: -6.62%"},
      {"smiles": "COc1ccc(C)cc1NS(=O)(=O)c1ccc(-c2cnc(C3CC3)o2)cc1", "activity change, negative = cytotoxicity": "inconclusive: -35.4%"},
      {"smiles": "Cc1cc(C(=O)COC(=O)c2ccccc2O)c(C)n1Cc1cccs1", "activity change, negative = cytotoxicity": "inactive: 0.392%"},
      {"smiles": "Cc1cc(C(=O)NC2CCCc3c2cnn3-c2cccc(C)c2C)n(C)n1", "note": "(stereo unspecified)", "activity change, negative = cytotoxicity": "inconclusive: -42.6%"},
      {"smiles": "CC[C@@H]1CCC[C@@H](O)[C@@H](C)C(=O)O[C@H](C)[C@@H](C)C/C=C(C)/C(OC)=C\\C(=O)N(C)C([C@@H](C)CC)C(=O)N(C)[C@@H](C(C)C)C(=O)N(C)[C@@H](COC)C(=O)N2CCC[C@H]2C(=O)N(C)[C@@H](C(C)C)C(=O)N2CCC[C@H]2C(=O)O1", "note": "(stereo partly specified) ([NMeξIle][NMeV][NMeS](Me)P[NMeV]P; linker N-C via X1)", "activity change, negative = cytotoxicity": "inconclusive: -7.42%"},
      {"smiles": "CCCCCOC(=O)c1[nH]c2c(c1C)C(=O)CC(c1ccco1)C2", "note": "(stereo unspecified)", "activity change, negative = cytotoxicity": "inactive: -17.9%"},
      {"smiles": "CC[C@H]1CN2CCc3cc(OC)c(OC)cc3C2C[C@@H]1C[C@H]1NCCc2cc(OC)c(OC)cc21", "note": "(stereo partly specified)", "activity change, negative = cytotoxicity": "inconclusive: -50.6%"},
      {"smiles": "Cc1ccnc(N/C=C(/NC(=O)c2ccccc2)C(=O)N/N=C\\c2ccc(F)cc2)n1", "activity change, negative = cytotoxicity": "inactive: -1.6%"},
      {"smiles": "Cc1cc(C(=O)NC2CCCc3c2cnn3-c2ccc(C)c(C)c2)n(C)n1", "note": "(stereo unspecified)", "activity change, negative = cytotoxicity": "inconclusive: -47.9%"}
    ]}
  ]
}
